According to publication PMC4294638:
No constants are given. Whether binding was seen depends on the method and setting. For some of these results: A result given as binding can be weak or reduced; the word gives no strength.

Assays:
[1] = molecular target: T1, recombinant Gerbich-type glycophorin C expressed in CHO cells (human) (UniProt P04921); test: flow cytometry on cells; Region II (4 ug) incubated with 1x10^6 CHO cells expressing recombinant GPC or its deletion forms Gerbich and Yus; detected with rabbit anti-Region II serum and FITC anti-rabbit Ig; only the binder purified
T1 sequence: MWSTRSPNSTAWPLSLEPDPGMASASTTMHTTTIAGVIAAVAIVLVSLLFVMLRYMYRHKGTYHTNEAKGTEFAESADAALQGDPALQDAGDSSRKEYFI

[2] = molecular target: T2, recombinant glycophorin C expressed in CHO cells (human) (UniProt P04921); test: as above
T2 sequence: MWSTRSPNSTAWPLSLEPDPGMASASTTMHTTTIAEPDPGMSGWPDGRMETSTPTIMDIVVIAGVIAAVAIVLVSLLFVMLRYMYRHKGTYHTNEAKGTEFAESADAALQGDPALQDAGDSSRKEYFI

[3] = molecular target: T3, glycophorin D, the truncated form of GPC lacking a.a. residues 1-21 (human (endogenous in erythrocytes)) (UniProt P04921); test: far-Western, overlay or dot blot; proteins of normal or Gerbich erythrocyte membranes resolved by SDS-PAGE, blotted on nitrocellulose, overlaid with Region II (50ug/ml) in TBS overnight at room temperature; detected with anti-c-myc MoAb 9E10; only the binder purified
T3 sequence: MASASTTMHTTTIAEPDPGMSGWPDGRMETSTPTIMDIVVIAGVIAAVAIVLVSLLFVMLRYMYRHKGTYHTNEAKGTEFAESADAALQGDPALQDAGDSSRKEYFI

[4] = molecular target: T4, Gerbich-type glycophorin C, endogenous, of Gerbich-negative human erythrocytes (human (endogenous in erythrocytes)) (UniProt P04921); test: as above
T4 sequence: T1 sequence

Which binding [1] does the source give for “recombinant, baculovirus-expressed Region II of P. falciparum EBA-140 ligand (domain or fragment)” here?
Its binding is “no binding (tested: 4 ug)”.

What about the binding [2] of the same substance?
The binding was “binds weakly”.

And the binding [3]?
Its binding is “no binding (tested: 50ug/ml)”.

What about the binding [4] of the same substance?
The binding was “no binding (tested: 50ug/ml)”.
